Test results published in PubChem BioAssay AID256 (DTP/NCI, 2004).
The list does not hold the whole screen: it is rich in T/C values a quarter to a half above the control, in often repeated tests (any T/C) and in doses without a T/C. Other doses and runs of a compound stand elsewhere. T/C is the treated group as % of the vehicle group. Some doses have a count of surviving animals in place of a T/C: the source files T/C as zero there, which appears to mark a toxic dose or a test without result, not a measured value. Some survivor counts are full or nearly so, which does not show that the dose was tolerated: the source hardly ever lists a survival T/C far under the control, and the zero likely stands for such cases as well. Counts of survivors are from the toxicity check (mostly the fifth day) where no day follows; animals may have died later. Schedules are NCI's codes, read here as Q, the interval in days (D) or hours (H), X, the number of doses. Some entries hold several experiments; their values stand side by side, smallest first. For survival time, the PubChem record calls one and a half times the control and up active, and a quarter to a half above the control has no call in these data; cut-offs in other NCI protocols can differ.

System: CD2F1 mice, L1210 leukemia ip, survival T/C
Assay: NCI In Vivo Anticancer Drug Screen. Data for tumor model L1210 Leukemia (intraperitoneal) in CD2F1 (CDF1) mice
Conditions: higher T/C = longer survival; for T/C: vehicle: water
Summary of the method: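 Vehicle-treated tumor-bearing mice served as controls (C) for compound-treated mice (T). Reported figure is T divided by C.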

[1] = T/C endpoint: mean survival time, dose: 100.0 mg/kg/injection, schedule: Q01DX009 (ip), vehicle: saline with Tween-80
[2] = T/C endpoint: mean survival time, dose: 200.0 mg/kg/injection, schedule: Q01DX009 (ip), vehicle: saline with Tween-80
[3] = T/C endpoint: mean survival time, dose: 400.0 mg/kg/injection, schedule: Q01DX009 (ip), vehicle: saline with Tween-80
[4] = T/C endpoint: mean survival time, dose: 200.0 mg/kg/injection, schedule: Q01DX001 (ip), vehicle: saline with Tween-80
[5] = T/C endpoint: mean survival time, dose: 400.0 mg/kg/injection, schedule: Q01DX001 (ip), vehicle: saline with Tween-80
[6] = T/C endpoint: mean survival time, dose: 400.0 mg/kg/injection, schedule: Q01DX001 (ip), vehicle: saline
[7] = T/C endpoint: mean survival time, dose: 400.0 mg/kg/injection, schedule: Q04DX003 (ip), vehicle: saline with Tween-80
[8] = T/C endpoint: mean survival time, dose: 300.0 mg/kg/injection, schedule: Q01DX001 (ip), vehicle: saline

C1C[N-]CC[N-]CC[N-]CC[N-]1.[Cl][Rh][Cl]
survivor count (T/C endpoint: mean survival time, dose: 25.0 mg/kg/injection, schedule: Q01DX009 (ip), vehicle: saline): 1 of 6 and 6 of 6 | survivor count (T/C endpoint: mean survival time, dose: 50.0 mg/kg/injection, schedule: Q01DX009 (ip), vehicle: saline): 2 of 6 | survivor count (T/C endpoint: mean survival time, dose: 100.0 mg/kg/injection, schedule: Q01DX009 (ip), vehicle: saline): 0 of 6 | survivor count (T/C endpoint: mean survival time, dose: 200.0 mg/kg/injection, schedule: Q01DX009 (ip), vehicle: saline): 0 of 6

CCCCCCCCCCCCCCCC(=O)N(CCCN(C)C)c1ccc(N(CCCN(C)C)C(=O)CCCCCCCCCCCCCCC)cc1
survivor count (T/C endpoint: mean survival time, dose: 12.5 mg/kg/injection, schedule: Q01DX009 (ip), vehicle: saline with Tween-80): 3 of 6 | survivor count (T/C endpoint: mean survival time, dose: 25.0 mg/kg/injection, schedule: Q01DX009 (ip), vehicle: saline with Tween-80): 3 of 6 | survivor count (T/C endpoint: mean survival time, dose: 50.0 mg/kg/injection, schedule: Q01DX009 (ip), vehicle: saline with Tween-80): 1 of 6 | survivor count [1]: 2 of 6 | survivor count [2]: 0 of 6 | survivor count [3]: 0 of 6

O=c1[nH]c(NCCCCc2ccccc2)c(Br)c(=O)[nH]1
survivor count [4]: 1 of 6 | survivor count [5]: 0 of 6

CC(C)(CO)COC(=O)NC1=C(N2CC2)C(=O)C(NC(=O)OCC(C)(C)CO)=C(N2CC2)C1=O
T/C (T/C endpoint: mean survival time, dose: 3.0 mg/kg/injection, schedule: Q01DX009 (ip)): 125 and 136 % of control | T/C (T/C endpoint: mean survival time, dose: 6.0 mg/kg/injection, schedule: Q01DX009 (ip)): 136 and 140 % of control

C=C(Br)C(=O)O
survivor count [6]: 0 of 6

O=C1c2c(Cl)c(Cl)c(Cl)c(Cl)c2C(=O)N1O
survivor count [1]: 3 of 6 | survivor count [3]: 2 of 6

N#CCC(=O)N/N=C/c1ccc2c(c1)CCC2
survivor count (T/C endpoint: mean survival time, dose: 100.0 mg/kg/injection, schedule: Q04DX003 (ip), vehicle: saline with Tween-80): 6 of 6 | survivor count (T/C endpoint: mean survival time, dose: 200.0 mg/kg/injection, schedule: Q04DX003 (ip), vehicle: saline with Tween-80): 5 of 6 | survivor count [7]: 6 of 6

NC(=S=O)C(N)=S=O
survivor count (T/C endpoint: median survival time, dose: 800.0 mg/kg/injection, schedule: Q01DX005 (ip), vehicle: saline with Tween-80): 0 of 6

CC(NC(=S)Nc1ccccc1)c1ccccc1 (stereo not drawn)
survivor count (T/C endpoint: mean survival time, dose: 100.0 mg/kg/injection, schedule: Q04DX002 (ip), vehicle: Klucel (hydroxypropylcellulose) (HPC)): 2 of 3 | survivor count (T/C endpoint: mean survival time, dose: 200.0 mg/kg/injection, schedule: Q04DX002 (ip), vehicle: Klucel (hydroxypropylcellulose) (HPC)): 1 of 3 | survivor count (T/C endpoint: mean survival time, dose: 400.0 mg/kg/injection, schedule: Q04DX002 (ip), vehicle: Klucel (hydroxypropylcellulose) (HPC)): 0 of 3

NC(CC[Se]Cc1ccccc1)C(=O)O (stereo not drawn)
survivor count [7]: 1 of 6

COc1ccc(C2C(C(C)=O)=C(C)NC(C)=C2C(C)=O)cc1
survivor count [7]: 6 of 6

O=C(O)c1ccco1
survivor count (T/C endpoint: mean survival time, dose: 400.0 mg/kg/injection, schedule: Q04DX003 (ip), vehicle: saline): 2 of 6

Cc1sc(Cc2ccccc2)nc1-c1ccc(N=Cc2ccc(N(CCOS(C)(=O)=O)CCOS(C)(=O)=O)cc2)cc1
survivor count [1]: 5 of 6

C=C(Br)CNC(=O)C(C)(C)C
survivor count [2]: 3 of 6 | survivor count [3]: 4 of 6

O=C(CCCl)c1ccc2c(c1)OCO2
survivor count [6]: 1 of 6

CNC1CCCCCC1
survivor count [8]: 0 of 6

CC1(OC(=O)c2ccccc2)CC(C)(C)[N+]([O-])=N1 (stereo not drawn)
survivor count (T/C endpoint: mean survival time, dose: 400.0 mg/kg/injection, schedule: Q01DX009 (ip), vehicle: Klucel (hydroxypropylcellulose) (HPC)): 4 of 6

COc1ccc(C(=O)/C=C/c2ccc(N(C)C)cc2)cc1
survivor count [8]: 6 of 6

C/C=C(/Cl)C(=O)O
survivor count [5]: 1 of 6

NNC(=O)Nc1ccccc1
survivor count (T/C endpoint: mean survival time, dose: 100.0 mg/kg/injection, schedule: Q01DX001 (ip), vehicle: saline with Tween-80): 0 of 3 | survivor count [4]: 0 of 3 | survivor count [5]: 0 of 3
